Measured values reported in PMC10741602.
Results are given in words; binding and its absence hold for the method and conditions named. Some results given as binding are weak or reduced against the parent protein; the word gives no strength.

Amino acid sequences for entries named in this document (tags omitted).
UniProt P10275: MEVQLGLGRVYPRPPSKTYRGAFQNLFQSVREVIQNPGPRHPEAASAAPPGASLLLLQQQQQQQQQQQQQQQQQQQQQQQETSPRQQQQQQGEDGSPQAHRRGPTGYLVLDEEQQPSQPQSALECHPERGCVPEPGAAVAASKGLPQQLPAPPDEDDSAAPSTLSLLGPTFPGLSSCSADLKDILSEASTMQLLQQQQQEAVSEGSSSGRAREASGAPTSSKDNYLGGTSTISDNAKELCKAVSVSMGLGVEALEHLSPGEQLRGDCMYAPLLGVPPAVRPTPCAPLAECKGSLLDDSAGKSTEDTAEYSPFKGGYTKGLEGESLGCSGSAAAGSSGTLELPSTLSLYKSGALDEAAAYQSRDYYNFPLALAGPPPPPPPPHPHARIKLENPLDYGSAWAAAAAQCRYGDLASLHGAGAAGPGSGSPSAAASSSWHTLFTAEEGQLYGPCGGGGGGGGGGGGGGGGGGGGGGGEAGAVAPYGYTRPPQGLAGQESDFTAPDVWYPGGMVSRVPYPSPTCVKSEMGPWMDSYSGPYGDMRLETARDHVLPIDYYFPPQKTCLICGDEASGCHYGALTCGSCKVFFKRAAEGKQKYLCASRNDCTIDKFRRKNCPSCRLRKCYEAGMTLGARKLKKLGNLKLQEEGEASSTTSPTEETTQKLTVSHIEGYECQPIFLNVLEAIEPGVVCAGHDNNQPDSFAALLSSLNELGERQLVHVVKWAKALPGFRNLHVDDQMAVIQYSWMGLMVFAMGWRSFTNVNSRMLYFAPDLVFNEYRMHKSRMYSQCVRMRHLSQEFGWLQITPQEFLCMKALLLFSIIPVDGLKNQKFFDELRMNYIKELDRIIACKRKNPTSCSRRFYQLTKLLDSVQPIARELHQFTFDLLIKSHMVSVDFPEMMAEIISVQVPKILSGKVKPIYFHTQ
UniProt P05412: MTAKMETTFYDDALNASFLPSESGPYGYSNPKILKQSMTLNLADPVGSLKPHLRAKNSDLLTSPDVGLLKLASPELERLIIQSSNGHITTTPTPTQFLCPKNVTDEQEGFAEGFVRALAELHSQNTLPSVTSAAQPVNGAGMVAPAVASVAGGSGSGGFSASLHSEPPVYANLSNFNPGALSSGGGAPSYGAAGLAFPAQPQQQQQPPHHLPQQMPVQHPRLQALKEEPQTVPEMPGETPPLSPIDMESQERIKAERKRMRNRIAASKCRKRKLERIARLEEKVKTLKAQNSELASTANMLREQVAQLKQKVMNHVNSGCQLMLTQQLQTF

Target: androgen receptor (human (endogenous in KYSE410)) (UniProt P10275)
Experiment: Re-ChIP (sequential chromatin immunoprecipitation); KYSE410 cells crosslinked with 1% formaldehyde, chromatin sonicated; first immunoprecipitated chromatin complexes eluted with 10 mM dithiothreitol at 37 °C for 30 min, diluted 50-fold, then second immunoprecipitation; qPCR of the regulatory region of the UGT2B15 locus

## Jun proto-oncogene (from UniProt P05412 1-331)
  binding: binds
